Measured values: the supplement of paper PMC10849652
The other results are listed elsewhere or left out.

Sequences of proteins named here, by UniProt entry; tags and fusion partners are left off. A change or cut given only in a name is not applied to a line headed by its entry.
UniProt Q8NDV3: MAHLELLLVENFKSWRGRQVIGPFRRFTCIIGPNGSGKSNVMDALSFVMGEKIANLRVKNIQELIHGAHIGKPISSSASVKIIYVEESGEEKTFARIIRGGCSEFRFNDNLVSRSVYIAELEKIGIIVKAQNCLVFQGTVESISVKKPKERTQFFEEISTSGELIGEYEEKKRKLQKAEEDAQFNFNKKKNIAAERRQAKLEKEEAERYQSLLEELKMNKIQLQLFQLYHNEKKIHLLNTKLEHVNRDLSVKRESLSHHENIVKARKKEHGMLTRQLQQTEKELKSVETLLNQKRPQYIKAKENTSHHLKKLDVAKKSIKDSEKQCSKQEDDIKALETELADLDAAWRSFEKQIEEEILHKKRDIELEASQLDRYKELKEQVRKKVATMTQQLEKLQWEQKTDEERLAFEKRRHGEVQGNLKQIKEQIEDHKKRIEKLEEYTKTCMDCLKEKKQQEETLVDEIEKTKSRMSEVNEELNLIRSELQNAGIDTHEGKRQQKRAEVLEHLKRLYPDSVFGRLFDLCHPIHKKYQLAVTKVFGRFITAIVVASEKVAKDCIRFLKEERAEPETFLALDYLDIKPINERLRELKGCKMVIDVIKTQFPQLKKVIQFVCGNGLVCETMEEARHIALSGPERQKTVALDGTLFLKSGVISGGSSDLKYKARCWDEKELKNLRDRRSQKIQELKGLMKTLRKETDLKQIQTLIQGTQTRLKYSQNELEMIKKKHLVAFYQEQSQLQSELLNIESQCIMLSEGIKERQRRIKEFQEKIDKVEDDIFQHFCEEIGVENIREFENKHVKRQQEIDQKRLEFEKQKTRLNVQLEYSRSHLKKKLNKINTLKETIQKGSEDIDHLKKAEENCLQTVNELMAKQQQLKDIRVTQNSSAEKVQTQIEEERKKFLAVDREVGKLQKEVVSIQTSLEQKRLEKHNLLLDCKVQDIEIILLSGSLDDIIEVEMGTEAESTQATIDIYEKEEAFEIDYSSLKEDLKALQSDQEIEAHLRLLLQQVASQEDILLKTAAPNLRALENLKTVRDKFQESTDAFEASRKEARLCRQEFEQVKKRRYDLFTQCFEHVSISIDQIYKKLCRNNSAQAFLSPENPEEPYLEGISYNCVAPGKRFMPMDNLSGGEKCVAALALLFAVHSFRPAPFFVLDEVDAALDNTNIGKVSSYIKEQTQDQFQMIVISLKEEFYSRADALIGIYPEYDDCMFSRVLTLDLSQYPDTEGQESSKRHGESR
UniProt O75971: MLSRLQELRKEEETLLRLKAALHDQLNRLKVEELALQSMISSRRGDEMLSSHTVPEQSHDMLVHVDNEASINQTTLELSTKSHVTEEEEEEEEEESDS
UniProt Q9UQE7: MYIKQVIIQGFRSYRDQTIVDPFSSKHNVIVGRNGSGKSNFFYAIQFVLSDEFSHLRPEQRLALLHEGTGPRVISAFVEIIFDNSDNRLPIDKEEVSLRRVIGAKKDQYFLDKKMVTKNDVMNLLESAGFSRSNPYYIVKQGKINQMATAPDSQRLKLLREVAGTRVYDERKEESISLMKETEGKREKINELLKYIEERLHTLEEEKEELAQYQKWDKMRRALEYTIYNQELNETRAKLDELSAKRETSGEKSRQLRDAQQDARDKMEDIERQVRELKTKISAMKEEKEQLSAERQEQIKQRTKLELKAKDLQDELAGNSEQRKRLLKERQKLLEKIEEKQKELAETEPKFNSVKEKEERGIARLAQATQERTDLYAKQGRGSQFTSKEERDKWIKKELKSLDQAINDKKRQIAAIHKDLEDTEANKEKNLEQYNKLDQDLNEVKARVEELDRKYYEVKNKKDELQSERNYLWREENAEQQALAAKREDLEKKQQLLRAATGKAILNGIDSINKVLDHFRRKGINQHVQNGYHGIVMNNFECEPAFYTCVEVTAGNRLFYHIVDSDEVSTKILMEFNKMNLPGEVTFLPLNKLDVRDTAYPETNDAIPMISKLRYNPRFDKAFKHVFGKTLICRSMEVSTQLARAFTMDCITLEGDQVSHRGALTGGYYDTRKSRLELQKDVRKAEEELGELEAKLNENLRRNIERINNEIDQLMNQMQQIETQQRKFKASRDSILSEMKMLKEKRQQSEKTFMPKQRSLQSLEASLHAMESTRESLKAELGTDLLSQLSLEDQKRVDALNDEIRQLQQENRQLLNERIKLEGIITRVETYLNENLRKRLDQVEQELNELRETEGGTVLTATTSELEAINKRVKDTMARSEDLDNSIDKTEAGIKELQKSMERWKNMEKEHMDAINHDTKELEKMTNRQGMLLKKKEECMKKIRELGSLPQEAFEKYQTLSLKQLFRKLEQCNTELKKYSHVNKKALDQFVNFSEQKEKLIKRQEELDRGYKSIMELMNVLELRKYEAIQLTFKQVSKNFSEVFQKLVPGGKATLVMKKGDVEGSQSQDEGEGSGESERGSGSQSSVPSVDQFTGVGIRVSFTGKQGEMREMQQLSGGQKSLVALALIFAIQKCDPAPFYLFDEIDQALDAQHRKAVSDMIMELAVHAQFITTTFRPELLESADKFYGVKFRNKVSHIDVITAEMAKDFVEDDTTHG
UniProt Q8WVI0: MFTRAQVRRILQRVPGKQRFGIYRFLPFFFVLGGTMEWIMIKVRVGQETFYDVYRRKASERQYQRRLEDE
UniProt P62318, whole entry, looked up: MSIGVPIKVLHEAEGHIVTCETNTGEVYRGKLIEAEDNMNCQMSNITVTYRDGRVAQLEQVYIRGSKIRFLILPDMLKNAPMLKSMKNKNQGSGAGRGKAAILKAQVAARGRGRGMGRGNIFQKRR
UniProt P35711: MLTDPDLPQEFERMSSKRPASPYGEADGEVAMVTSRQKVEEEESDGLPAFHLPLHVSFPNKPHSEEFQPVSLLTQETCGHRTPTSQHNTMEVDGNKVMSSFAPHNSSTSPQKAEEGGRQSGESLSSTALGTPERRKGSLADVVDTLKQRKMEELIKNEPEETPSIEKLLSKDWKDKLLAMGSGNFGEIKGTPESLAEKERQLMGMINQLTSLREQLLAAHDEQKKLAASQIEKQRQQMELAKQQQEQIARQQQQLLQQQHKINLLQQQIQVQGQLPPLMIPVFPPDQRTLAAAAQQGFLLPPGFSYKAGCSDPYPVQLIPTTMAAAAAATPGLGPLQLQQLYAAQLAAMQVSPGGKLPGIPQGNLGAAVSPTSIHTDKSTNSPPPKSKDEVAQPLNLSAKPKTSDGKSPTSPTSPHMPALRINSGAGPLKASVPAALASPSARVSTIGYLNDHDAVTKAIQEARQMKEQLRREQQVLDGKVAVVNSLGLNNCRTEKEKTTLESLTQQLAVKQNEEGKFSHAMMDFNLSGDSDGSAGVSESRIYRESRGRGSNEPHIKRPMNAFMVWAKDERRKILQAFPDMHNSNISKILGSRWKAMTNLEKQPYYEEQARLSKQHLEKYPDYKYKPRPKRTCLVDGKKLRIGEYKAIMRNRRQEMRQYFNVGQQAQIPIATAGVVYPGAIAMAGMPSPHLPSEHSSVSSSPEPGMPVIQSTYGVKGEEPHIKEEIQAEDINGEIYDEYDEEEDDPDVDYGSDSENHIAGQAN
UniProt P51531, whole entry, looked up: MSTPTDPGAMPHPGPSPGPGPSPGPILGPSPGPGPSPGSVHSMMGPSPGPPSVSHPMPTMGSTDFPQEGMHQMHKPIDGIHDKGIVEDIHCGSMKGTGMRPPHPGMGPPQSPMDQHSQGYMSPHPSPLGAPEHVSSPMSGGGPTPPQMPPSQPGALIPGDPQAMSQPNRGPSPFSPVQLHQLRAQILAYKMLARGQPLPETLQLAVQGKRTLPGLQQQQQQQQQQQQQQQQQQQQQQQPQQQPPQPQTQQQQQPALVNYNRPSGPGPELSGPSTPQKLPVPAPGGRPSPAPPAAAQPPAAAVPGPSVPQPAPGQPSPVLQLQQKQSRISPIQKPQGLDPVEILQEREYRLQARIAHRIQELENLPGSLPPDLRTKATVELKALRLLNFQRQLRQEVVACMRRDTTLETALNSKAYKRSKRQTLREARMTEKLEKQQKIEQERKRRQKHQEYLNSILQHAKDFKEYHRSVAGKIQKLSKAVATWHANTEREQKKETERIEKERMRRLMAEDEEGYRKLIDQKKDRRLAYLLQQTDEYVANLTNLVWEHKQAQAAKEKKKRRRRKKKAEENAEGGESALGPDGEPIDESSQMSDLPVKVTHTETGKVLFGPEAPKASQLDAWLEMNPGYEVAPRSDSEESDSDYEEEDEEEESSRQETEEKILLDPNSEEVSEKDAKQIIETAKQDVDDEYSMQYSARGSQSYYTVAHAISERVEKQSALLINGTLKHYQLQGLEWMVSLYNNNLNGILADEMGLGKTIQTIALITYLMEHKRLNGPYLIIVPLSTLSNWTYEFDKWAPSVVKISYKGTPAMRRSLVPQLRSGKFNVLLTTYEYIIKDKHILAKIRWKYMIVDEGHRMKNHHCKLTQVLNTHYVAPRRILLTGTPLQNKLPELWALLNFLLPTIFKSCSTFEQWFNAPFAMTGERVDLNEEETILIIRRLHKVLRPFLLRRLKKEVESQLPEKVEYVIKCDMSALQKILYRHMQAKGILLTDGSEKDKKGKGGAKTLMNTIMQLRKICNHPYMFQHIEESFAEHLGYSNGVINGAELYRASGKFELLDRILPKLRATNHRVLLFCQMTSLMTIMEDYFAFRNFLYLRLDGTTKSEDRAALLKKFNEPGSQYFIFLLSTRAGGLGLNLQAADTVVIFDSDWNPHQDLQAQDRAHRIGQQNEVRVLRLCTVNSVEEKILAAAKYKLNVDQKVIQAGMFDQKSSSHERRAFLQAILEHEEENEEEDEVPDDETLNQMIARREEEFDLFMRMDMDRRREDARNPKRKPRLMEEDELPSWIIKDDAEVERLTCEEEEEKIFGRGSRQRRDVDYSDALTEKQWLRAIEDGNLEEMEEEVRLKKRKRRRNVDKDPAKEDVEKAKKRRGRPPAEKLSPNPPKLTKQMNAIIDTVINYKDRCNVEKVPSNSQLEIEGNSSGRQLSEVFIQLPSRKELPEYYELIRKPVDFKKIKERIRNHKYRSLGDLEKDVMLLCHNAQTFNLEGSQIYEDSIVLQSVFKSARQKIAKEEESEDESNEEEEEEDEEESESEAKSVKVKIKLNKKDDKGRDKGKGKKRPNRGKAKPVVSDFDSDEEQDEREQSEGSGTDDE
UniProt O60271: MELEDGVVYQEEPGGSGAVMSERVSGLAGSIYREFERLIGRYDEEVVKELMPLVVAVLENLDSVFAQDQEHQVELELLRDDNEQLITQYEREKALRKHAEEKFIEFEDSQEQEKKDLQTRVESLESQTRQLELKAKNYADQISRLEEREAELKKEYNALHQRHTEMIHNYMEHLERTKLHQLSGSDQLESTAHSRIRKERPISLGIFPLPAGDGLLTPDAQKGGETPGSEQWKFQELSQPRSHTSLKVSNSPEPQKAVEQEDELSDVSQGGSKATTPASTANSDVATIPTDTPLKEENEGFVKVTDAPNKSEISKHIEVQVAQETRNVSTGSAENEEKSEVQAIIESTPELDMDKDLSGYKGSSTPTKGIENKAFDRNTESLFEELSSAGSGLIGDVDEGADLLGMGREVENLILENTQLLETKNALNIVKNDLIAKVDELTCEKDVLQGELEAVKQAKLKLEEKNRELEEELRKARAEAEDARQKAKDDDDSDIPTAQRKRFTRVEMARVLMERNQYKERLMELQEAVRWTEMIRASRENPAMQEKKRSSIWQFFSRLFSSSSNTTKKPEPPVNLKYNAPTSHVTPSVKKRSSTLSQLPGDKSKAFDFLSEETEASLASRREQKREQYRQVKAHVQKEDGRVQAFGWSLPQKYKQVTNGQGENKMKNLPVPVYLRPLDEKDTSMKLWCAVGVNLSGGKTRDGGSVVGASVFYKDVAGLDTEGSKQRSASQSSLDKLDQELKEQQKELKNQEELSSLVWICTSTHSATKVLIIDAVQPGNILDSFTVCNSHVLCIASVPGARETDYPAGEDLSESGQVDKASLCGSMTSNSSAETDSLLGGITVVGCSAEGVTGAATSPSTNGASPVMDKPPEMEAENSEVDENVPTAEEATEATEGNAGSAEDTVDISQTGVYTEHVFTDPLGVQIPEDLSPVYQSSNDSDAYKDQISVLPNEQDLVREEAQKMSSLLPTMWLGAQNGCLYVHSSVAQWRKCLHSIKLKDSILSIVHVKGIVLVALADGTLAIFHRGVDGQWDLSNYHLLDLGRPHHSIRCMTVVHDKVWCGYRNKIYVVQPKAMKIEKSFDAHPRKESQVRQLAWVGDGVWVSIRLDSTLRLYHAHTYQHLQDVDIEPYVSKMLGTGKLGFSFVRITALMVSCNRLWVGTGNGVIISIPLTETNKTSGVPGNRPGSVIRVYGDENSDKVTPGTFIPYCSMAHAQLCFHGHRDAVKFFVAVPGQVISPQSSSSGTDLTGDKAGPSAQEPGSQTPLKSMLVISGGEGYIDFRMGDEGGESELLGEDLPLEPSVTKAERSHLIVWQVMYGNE
UniProt O60493, whole entry, looked up: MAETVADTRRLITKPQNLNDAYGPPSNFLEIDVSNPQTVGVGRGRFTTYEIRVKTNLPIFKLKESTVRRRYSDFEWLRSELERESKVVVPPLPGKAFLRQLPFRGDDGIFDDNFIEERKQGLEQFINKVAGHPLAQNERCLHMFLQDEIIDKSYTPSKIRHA

Key:
Assay in all cases: log2 fold change, soluble protein after heating vs DMSO (PISA); higher = thermal stabilisation; K562 cells, 10 uM, 30 min; active = over 0.2 and 3.5 SD of the protein, either way, in both replicates (recomputed)
erlotinib = compound: C#Cc1cccc(Nc2ncnc3cc(OCCOC)c(OCCOC)cc23)c1 [erlotinib]
Method in brief: (§1)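 Thermal stability values are relative to control samples and come from duplicates. They are expressed as log2 fold changes. For measurement, K562 cells (2×10^6 cells/mL) received 10 μM compound for 30 min, and aliquots were heated for 3 min over 48°C-58°C, pooled, and extracted at 4°C in PBS with 0.5% NP-40. Soluble protein, the supernatant after 21,000xg for 90 min, was quantified by TMTpro 16plex LC-MS/MS with equalised channel sums.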

[1] = compound: C/C(=N\NC(=O)C1=CC(=CC=C1)S(=O)(=O)N2CCOCC2)/C3=C(C=CC(=C3)Cl)O
Method in brief: as §1

[2] = compound: C1=CC(=CC=C1C2=NC3=C(N2)C=C(C=C3)C(=O)N)OC4=CC=C(C=C4)Cl
Method in brief: as §1

[3] = compound: C1=CC2=C(C=CC(=C2)/C=C\3/C(=O)NC(=NCC4=CC=CS4)S3)N=C1
Method in brief: as §1

[4] = compound: C1=CC=C2C(=C1)C3=NNC4=CC=CC(=C43)C2=O
Method in brief: as §1

[5] = compound: C1CCN(C1)C(=O)NC2=CC=CC(=C2)NC3=NC=C(C(=N3)NCCC4=CN=CN4)Br
Method in brief: as §1

[6] = compound: C1CN(CCC1(CC2=CC=C(C=C2)Cl)N)C3=NC=NC4=C3C=CN4
Method in brief: as §1

[7] = compound: C1=CC(=C(C=C1Cl)C2=NC3=NC=CN=C3C(=N2)NC4=CC=NC=C4)F
Method in brief: as §1

[8] = compound: C1=CC2=NC=CN=C2C=C1/C=C/3\C(=O)NC(=O)S3
Method in brief: as §1

[9] = compound: C1=CC=C(C=C1)C2=NC(=C(N2)C3=CC=NC=C3)C4=CC(=C(C=C4)Cl)O
Method in brief: as §1

Measured: log2 fold change

SMARCD2 (UniProt Q92925)
inactive: erlotinib 0.031 | [1] 0.125 | [2] 0.092 | [3] -0.006 | [4] 0.049 | [5] -0.225 | [6] -0.319

SNAP47 (UniProt Q5SQN1)
inactive: erlotinib 0.104 | [7] -0.374 | [2] -0.105

SNW1 (UniProt Q13573)
inactive: erlotinib -0.047 | [1] -0.028 | [7] -0.029 | [2] 0.036 | [3] -0.015 | [8] 0.045 | [9] -0.051 | [4] -0.001 | [5] 0.001 | [6] 0.002

SP100 isoform 4 (UniProt P23497)
inactive: erlotinib 0.011 | [1] 0.044 | [7] 0.037 | [2] 0.022 | [3] -0.071 | [8] 0.063 | [9] 0.033 | [4] -0.05 | [5] -0.001 | [6] 0.035

SMU1 (UniProt Q2TAY7)
inactive: erlotinib -0.024 | [1] 0.018 | [7] 0.002 | [2] -0.003 | [3] -0.041 | [8] 0.051 | [9] 0.011 | [4] -0.03 | [5] -0.022 | [6] 0.017

SMC2 (UniProt O95347)
inactive: erlotinib 0.018 | [1] 0.05 | [7] 0.007 | [2] -0.024 | [3] -0.002 | [8] 0.022 | [9] 0.019 | [4] 0.033 | [5] 0.002 | [6] -0.066

2 records picked at random from the list so far, as already listed:
SP100 isoform 4 (UniProt P23497)
inactive: erlotinib 0.011 | [1] 0.044 | [7] 0.037 | [2] 0.022 | [3] -0.071 | [8] 0.063 | [9] 0.033 | [4] -0.05 | [5] -0.001 | [6] 0.035

SMC2 (UniProt O95347)
inactive: erlotinib 0.018 | [1] 0.05 | [7] 0.007 | [2] -0.024 | [3] -0.002 | [8] 0.022 | [9] 0.019 | [4] 0.033 | [5] 0.002 | [6] -0.066

Further entries follow.

SNX25 (UniProt Q9H3E2)
inactive: erlotinib -0.22 | [1] -0.364 | [2] 0.001 | [3] 0.149 | [4] -0.039

SLC9A8 isoform 2 (UniProt Q9Y2E8)
inactive: erlotinib -0.025 | [1] -0.018 | [7] 0.066 | [2] 0.012 | [3] 0.011 | [8] 0.059 | [4] -0.034 | [5] 0.044 | [6] 0.013

SLC9A1 (UniProt P19634)
inactive: erlotinib -0.065 | [1] 0.071 | [7] 0.084 | [2] 0.1 | [3] 0.002 | [8] 0.054 | [4] 0.018 | [5] 0.179 | [6] 0.157

SLC7A6OS (UniProt Q96CW6)
inactive: erlotinib -0.015 | [1] 0.018 | [7] 0.035 | [2] -0.039 | [3] 0.007 | [8] 0.042 | [9] 0.045 | [4] -0.025 | [5] -0.015 | [6] 0.022

SLMAP (UniProt Q14BN4)
inactive: erlotinib 0.034 | [1] 0.029 | [7] -0.062 | [2] 0.015 | [3] 0.046 | [8] -0.046 | [9] -0.04 | [4] -0.029 | [5] 0.002 | [6] -0.04

SMC1B isoform 3 (UniProt Q8NDV3)
inactive: erlotinib 0.039 | [1] 0.142 | [7] -0.01 | [2] -0.01 | [3] -0.008 | [8] -0.219 | [9] -0.099 | [4] -0.072 | [5] -0.101 | [6] -0.05

SMCR8 (UniProt Q8TEV9)
inactive: erlotinib -0.021 | [1] 0.06 | [7] -0.066 | [2] 0.064 | [3] 0.053 | [8] -0.04 | [4] -0.011 | [5] 0.036 | [6] 0.084

SNAPC5 (UniProt O75971)
inactive: erlotinib -0.102 | [1] -0.012 | [7] 0.082 | [2] 0.067 | [3] -0.052 | [8] 0.103 | [4] -0.143 | [5] -0.08 | [6] -0.01

SMIM15 (UniProt Q7Z3B0)
inactive: erlotinib -0.031 | [1] 0.036 | [7] -0.076 | [2] -0.058 | [3] 0.009 | [8] 0 | [4] 0.148 | [5] -0.039 | [6] 0.088

SMC3 (UniProt Q9UQE7)
inactive: erlotinib -0.02 | [1] 0.024 | [7] 0.038 | [2] 0.026 | [3] 0.009 | [8] 0.012 | [9] -0.053 | [4] -0.157 | [5] -0.005 | [6] 0.03

SMIM4 (UniProt Q8WVI0)
inactive: erlotinib -0.163 | [1] 0.002 | [7] -0.045 | [2] 0.126 | [3] -0.04 | [8] -0.118 | [4] 0.156 | [5] 0.084 | [6] -0.134

SNX27 (UniProt Q96L92)
inactive: erlotinib 0.023 | [1] -0.029 | [7] -0.265 | [2] 0.075 | [3] -0.007 | [9] 0.206 | [4] 0.18 | [5] -0.125 | [6] 0.023

SLC8B1 (UniProt Q6J4K2)
inactive: erlotinib 0.111 | [1] 0.089 | [2] 0.003 | [3] -0.039 | [8] 0.095 | [9] 0.016 | [4] 0.032

SOCS2 (UniProt O14508)
inactive: erlotinib 0.025 | [1] 0.085 | [7] 0 | [2] -0.045 | [3] 0.049 | [8] 0.032 | [9] -0.066 | [4] -0.023 | [5] -0.001 | [6] -0.011

SNX17 (UniProt Q15036)
inactive: erlotinib 0.051 | [1] 0.115 | [7] -0.082 | [2] -0.169 | [3] 0.052 | [8] -0.142 | [9] 0.031 | [4] 0.022 | [5] -0.161 | [6] -0.047

SNRPD3 (UniProt P62318)
inactive: erlotinib -0.019 | [1] -0.02 | [7] -0.04 | [2] -0.038 | [3] 0.012 | [8] 0.079 | [9] -0.113 | [4] -0.076 | [5] 0.068 | [6] -0.012

SOX5 (UniProt P35711)
inactive: erlotinib 0.009 | [1] 0.006 | [2] 0.125 | [3] 0.047 | [8] 0.018 | [9] -0.049 | [4] 0.012 | [5] -0.069 | [6] 0.095

SLC9A6 isoform 3 (UniProt Q92581)
inactive: erlotinib 0.006 | [1] 0.013 | [2] -0.103 | [3] -0.022 | [8] 0.18 | [4] -0.068 | [5] 0.021 | [6] 0.006

SMARCA2 (UniProt P51531)
inactive: erlotinib 0.007 | [1] -0.149 | [2] -0.062 | [3] 0.069 | [8] -0.01 | [9] 0.13 | [4] -0.155

SPAG9 isoform 4 (UniProt O60271)
inactive: erlotinib 0.019 | [1] 0.048 | [2] -0.087 | [3] -0.103 | [8] -0.065 | [9] 0.272 | [4] 0.04 | [5] 0.03 | [6] 0.119

SNX3 (UniProt O60493)
inactive: erlotinib 0.129 | [1] 0.074 | [7] -0.056 | [2] -0.052 | [3] 0.078 | [8] -0.058 | [9] 0.123 | [4] -0.136 | [5] 0.026 | [6] -0.068

SOD1 (UniProt P00441)
inactive: erlotinib -0.054 | [1] -0.024 | [7] -0.044 | [2] 0.04 | [3] 0.063 | [8] 0.025 | [9] -0.083 | [4] -0.054 | [5] 0.036 | [6] -0.021

SMARCC2 (UniProt Q8TAQ2)
inactive: erlotinib 0.112 | [1] 0.142 | [7] 0.086 | [2] -0.069 | [3] 0.027 | [8] 0.074 | [9] 0.069 | [4] -0.019 | [5] -0.09 | [6] -0.259

SNRPA1 (UniProt P09661)
inactive: erlotinib -0.055 | [1] -0.052 | [7] -0.041 | [2] 0.004 | [3] -0.056 | [8] 0.054 | [9] 0.035 | [4] -0.016 | [5] 0.029 | [6] -0.005
